Some of the results follow.
These targets were tested with COc1ccc(Cn2ccc3cc(C)c(C(=O)NO)cc32)cc1 (assay: dose-dependent thermal stabilisation call (2D-TPP, DLPTP, 10% FDR) (binary (1 = stabilised)); higher = stabilised by the compound). Conditions: system: HL-60 intact cells; concentration range 0.04-10 µM.
Protocol: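 2D thermal proteome profiling in intact HL-60 cells treated with BRD-3811 (0, 0.04, 0.29, 2, 10 uM) for 90 min at 37 C, then heated 3 min at one of 12 temperatures (42-63.9 C). Soluble protein was quantified by TMT10 MS. The value is the DLPTP call of the paper: dose-dependent thermal stabilisation over all temperatures at 10% FDR (F-test of a dose-response against a flat model); one experiment, one call per tested protein.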

Protein sequences, listed by entry. Tags and fused reporters are not part of them. Lines headed by an entry give the natural chain unless they say otherwise; changes in a name come on top.
UniProt Q14676: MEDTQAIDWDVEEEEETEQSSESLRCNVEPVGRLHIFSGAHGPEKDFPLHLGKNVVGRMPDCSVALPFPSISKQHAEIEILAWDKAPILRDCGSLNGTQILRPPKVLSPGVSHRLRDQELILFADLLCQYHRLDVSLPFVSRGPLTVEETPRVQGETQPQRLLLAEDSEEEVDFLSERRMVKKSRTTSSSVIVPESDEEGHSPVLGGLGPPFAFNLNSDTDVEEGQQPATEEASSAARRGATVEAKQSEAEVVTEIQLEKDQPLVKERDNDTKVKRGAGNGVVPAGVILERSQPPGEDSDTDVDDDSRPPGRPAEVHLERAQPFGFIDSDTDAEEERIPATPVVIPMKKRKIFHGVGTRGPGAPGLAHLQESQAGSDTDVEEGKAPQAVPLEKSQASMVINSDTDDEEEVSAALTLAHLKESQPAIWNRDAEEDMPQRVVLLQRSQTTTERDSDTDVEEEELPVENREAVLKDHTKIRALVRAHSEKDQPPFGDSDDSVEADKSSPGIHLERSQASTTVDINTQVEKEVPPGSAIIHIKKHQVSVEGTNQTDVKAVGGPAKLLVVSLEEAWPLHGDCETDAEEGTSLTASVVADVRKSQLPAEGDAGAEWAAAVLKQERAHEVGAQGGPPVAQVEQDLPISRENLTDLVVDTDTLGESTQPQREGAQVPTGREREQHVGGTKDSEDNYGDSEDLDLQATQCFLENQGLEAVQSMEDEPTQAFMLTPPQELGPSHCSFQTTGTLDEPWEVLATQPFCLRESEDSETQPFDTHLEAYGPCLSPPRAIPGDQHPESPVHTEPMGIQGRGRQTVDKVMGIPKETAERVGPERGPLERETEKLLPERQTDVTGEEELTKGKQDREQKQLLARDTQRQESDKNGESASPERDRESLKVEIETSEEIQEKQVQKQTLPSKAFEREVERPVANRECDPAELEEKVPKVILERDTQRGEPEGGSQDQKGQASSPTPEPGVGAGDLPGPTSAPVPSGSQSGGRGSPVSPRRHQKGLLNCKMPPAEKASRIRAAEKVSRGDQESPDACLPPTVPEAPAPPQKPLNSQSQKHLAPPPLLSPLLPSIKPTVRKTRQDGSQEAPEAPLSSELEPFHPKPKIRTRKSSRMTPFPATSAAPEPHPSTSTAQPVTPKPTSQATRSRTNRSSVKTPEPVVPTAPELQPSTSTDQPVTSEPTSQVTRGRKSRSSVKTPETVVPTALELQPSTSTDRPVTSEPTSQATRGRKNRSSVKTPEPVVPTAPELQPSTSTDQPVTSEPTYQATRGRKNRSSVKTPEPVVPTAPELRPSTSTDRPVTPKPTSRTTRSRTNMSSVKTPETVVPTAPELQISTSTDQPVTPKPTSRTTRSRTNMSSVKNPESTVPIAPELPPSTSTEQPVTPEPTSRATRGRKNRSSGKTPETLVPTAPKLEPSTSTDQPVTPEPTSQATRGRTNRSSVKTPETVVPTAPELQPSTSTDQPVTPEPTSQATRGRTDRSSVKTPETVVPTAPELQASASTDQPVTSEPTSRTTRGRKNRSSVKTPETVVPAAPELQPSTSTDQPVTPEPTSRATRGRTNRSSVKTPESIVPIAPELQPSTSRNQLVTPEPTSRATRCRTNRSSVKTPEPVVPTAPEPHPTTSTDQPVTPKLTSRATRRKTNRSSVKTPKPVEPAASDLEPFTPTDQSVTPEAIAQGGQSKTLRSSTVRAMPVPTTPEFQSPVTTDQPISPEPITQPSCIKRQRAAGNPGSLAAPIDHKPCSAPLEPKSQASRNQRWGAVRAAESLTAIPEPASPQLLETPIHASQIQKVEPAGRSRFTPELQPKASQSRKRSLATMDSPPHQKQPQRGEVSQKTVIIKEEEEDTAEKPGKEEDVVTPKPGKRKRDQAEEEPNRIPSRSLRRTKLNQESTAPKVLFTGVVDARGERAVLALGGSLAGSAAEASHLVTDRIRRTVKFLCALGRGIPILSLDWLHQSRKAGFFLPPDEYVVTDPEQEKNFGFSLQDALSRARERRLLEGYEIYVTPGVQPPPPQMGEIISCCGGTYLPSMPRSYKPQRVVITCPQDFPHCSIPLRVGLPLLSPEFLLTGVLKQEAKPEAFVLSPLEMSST
UniProt P02686, whole entry: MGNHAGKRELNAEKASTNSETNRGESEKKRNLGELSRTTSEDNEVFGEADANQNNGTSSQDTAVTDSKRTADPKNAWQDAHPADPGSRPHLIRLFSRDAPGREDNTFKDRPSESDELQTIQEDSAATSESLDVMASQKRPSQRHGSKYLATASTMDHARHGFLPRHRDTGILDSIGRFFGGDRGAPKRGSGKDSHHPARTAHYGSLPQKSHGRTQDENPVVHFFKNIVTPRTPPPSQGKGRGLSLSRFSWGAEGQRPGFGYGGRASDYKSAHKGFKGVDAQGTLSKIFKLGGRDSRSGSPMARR
UniProt Q7L1W4: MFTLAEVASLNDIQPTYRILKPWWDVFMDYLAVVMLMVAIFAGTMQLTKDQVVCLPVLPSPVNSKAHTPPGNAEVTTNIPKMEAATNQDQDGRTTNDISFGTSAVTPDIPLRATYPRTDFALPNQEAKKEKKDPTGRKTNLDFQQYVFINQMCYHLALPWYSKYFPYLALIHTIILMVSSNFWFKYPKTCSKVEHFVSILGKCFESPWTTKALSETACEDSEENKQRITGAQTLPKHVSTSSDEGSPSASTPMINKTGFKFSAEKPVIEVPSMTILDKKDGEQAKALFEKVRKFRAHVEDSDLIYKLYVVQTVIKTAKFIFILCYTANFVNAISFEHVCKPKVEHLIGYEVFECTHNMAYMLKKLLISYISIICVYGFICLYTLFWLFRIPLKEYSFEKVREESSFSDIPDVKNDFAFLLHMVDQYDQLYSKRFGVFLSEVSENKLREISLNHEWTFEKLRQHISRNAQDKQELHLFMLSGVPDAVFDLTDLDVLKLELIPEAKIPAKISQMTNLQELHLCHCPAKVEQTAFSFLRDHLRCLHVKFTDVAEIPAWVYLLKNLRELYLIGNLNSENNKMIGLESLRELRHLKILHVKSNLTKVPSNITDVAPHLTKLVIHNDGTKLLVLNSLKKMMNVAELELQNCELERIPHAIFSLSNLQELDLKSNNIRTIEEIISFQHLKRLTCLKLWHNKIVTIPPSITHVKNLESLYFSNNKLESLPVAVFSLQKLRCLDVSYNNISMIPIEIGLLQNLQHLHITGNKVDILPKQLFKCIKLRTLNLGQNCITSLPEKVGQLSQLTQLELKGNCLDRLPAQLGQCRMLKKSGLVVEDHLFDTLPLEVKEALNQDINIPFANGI
UniProt Q9NX47: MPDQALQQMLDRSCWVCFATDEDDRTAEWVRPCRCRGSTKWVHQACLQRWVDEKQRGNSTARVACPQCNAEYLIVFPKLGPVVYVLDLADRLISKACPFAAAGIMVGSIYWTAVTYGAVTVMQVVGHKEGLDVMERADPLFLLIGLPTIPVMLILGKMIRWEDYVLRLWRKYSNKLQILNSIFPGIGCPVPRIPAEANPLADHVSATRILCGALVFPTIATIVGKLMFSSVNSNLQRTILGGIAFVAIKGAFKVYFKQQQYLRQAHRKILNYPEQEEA
UniProt Q9BQ69: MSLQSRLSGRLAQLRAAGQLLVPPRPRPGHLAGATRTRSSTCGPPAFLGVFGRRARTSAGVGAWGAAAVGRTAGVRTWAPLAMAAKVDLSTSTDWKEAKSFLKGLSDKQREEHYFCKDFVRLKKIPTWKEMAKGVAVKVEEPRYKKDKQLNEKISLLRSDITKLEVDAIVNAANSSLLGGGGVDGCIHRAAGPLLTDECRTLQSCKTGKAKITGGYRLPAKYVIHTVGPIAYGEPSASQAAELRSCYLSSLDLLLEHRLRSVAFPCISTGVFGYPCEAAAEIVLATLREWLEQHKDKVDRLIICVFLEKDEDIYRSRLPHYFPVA
UniProt Q9Y383: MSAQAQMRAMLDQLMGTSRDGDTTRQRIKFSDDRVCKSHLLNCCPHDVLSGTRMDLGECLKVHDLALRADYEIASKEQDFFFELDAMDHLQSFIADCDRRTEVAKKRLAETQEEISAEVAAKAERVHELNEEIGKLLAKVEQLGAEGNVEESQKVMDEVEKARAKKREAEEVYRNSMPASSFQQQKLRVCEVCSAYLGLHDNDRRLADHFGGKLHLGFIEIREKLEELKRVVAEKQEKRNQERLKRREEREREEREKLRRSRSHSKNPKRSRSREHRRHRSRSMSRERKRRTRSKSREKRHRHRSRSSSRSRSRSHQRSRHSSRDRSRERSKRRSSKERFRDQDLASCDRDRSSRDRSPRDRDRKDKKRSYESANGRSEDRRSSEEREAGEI

Target	dose-dependent thermal stabilisation call
LEO1 (UniProt Q8WVC0)	inactive: 0
MDC1 (UniProt Q14676)	inactive: 0
MBP (UniProt P02686)	inactive: 0
LOC389203	inactive: 0
LRRC8D (UniProt Q7L1W4)	inactive: 0
MARCH5 (UniProt Q9NX47)	inactive: 0
MACROD1 (UniProt Q9BQ69)	inactive: 0
LUC7L2 (UniProt Q9Y383)	inactive: 0

Reference: the supplement of paper PMC7666118
